# Data as given in PubChem BioAssay (EPA / NIEHS).
# Protein sequences, listed by entry. Tags and fused reporters are not part of them. Lines headed by an entry give the natural chain unless they say otherwise; changes in a name come on top.
# UniProt P20813: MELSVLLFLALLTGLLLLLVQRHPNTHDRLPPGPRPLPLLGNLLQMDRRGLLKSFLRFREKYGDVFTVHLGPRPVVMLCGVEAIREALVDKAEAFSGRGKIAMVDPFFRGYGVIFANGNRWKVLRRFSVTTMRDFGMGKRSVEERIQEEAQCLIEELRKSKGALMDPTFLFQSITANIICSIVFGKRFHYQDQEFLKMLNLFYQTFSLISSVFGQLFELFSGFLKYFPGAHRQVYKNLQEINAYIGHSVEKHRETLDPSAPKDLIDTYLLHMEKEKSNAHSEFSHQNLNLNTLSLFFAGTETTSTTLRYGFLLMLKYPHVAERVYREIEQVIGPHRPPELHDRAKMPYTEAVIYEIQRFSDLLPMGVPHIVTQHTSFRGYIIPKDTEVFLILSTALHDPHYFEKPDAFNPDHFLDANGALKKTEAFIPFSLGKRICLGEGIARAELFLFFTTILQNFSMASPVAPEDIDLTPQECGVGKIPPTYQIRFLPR
# UniProt P30560, whole entry, looked up: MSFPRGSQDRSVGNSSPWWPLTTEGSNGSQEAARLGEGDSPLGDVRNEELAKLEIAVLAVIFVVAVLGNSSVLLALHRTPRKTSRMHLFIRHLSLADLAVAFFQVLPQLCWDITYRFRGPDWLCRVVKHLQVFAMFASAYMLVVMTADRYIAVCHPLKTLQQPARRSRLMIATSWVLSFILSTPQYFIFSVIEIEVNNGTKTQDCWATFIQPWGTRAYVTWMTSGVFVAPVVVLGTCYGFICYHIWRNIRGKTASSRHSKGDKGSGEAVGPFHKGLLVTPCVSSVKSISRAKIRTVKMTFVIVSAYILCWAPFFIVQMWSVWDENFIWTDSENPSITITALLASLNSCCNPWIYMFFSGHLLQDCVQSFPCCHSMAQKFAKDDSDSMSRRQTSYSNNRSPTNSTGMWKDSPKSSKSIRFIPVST
# Inconclusive means that the source gave no clear call. Such entries were picked first, then a sample of the others. For some assays here: Potencies beside an inconclusive call are fits to weak or partial responses and may not hold up. Activity calls are given as the source filed them. How the source made its calls: active means hit-call score of the fitted dose curve at least 0.9, where 1 is the maximum; inconclusive means response in the unintended direction; inactive means score below 0.9.
# How the values were obtained:
# [1] = read-out: Cytochrome P450 2B6 (Homo sapiens) (UniProt P20813); assay: CLD_CYP2B6_48hr: CellzDirect (CLD) Gene Expression Assay for xenobiotic metabolism (CYP2B6) at 48 hours (AID 2283699);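 further: actives raise transcript level above DMSO so potency reflects induction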
# Procedure, shortened: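 Primary human hepatocytes dosed daily for two days over multiple concentrations, 0.2% DMSO vehicle; CYP2B6 mRNA quantified at 48 h by qNPA chemiluminescence. Induction fitted as gain of signal versus DMSO; cytotoxicity annotated by morphology.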
# [2] = target: rat Vasopressin 1 Receptor (V1), Avpr1a (gene 25107) (UniProt P30560); assay: NVS_GPCR_rV1: NovaScreen (NVS) G Protein-Coupled Receptor Assay for rat Vasopressin 1 Receptor (V1) (AID 2283316)
# Procedure, shortened: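 Radioligand binding on rat liver membranes, 1.5 h incubation, filter-based scintillation counting. Single 25 uM screen in duplicate; chemicals meeting threshold (e.g. 30% inhibition) run in concentration-response up to 50 uM.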
SMILES,AC50 [1],outcome [2]
CCCOC(=O)NCCCN(C)C,inconclusive: 41.8 nM,–
CC(=O)O,–,inactive
